The values that follow come from article PMC9433436.

The target in the data set is T1, RNase P protein C5 (rnpA) (Escherichia coli) (UniProt P0A7Y8).
T1 sequence (looked up, limits assumed): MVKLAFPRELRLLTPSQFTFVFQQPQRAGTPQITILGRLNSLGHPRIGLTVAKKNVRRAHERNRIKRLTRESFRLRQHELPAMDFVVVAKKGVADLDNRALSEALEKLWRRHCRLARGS
In words: EMSA dissociation kinetics. The following applies: with P RNA, 5 mM Ca2+, 500 nM unlabeled ptRNA_GG chase, about half dissociates rapidly (ES), remainder stays bound; EMSA: 90 mM Tris-HCl pH 8, 100 mM NaCl, 3 mM CaCl2, 7% glycerol, 0.005% reduced Triton X-100; 37 C 3 min then ice 15 min; 7% native gel kept <25 C; recombinant protein; label: 5' 32P (EMSA); probe letters rebuilt from the primers and the genome.

Construct, isoform or probe ends are uncertain for at least one entry. A weaker result is weaker than the reference pair of the same experiment. Tags and fusion partners may be left off the protein sequences shown.

Turning to “GAAUUCUGGGGCUACGUAGCUCAGUUGGUUAGAGCACAUCACUCAUAAUGAUGGGGUCACAGGUUCGAAUCCCGUCGUAGCCACCA [ptRNA_GG]”, the binding result was “binds more weakly”.
